No constants are given. Whether binding was seen depends on the method and setting. Some entries that bind do so weakly or less than the wild type. Tags and fused reporters may be left off the sequences shown.
T1: recombinant human apolipoprotein ApoA4 (human) (UniProt P06727)
T1 sequence: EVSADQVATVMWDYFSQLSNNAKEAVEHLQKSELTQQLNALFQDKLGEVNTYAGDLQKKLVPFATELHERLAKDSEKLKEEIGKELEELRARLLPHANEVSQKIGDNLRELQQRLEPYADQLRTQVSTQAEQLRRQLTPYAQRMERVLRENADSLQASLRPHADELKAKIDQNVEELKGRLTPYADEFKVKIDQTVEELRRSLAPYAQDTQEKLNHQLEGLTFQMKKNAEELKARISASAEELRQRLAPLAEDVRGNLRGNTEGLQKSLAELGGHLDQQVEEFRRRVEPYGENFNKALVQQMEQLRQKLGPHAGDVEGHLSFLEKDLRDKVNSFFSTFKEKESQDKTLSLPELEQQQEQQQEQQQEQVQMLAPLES

T2: recombinant soluble human CD300LG-Fc fusion protein (human) (UniProt Q6UXG3)
T2 sequence: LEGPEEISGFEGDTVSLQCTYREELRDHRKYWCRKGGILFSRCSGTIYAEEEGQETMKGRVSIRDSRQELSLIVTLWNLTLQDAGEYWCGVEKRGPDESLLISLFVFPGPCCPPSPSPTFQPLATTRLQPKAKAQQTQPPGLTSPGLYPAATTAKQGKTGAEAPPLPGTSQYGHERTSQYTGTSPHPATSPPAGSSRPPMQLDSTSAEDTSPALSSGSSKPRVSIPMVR

B1: recombinant soluble human CD300LG-Fc fusion protein (Fc fusion, UniProt Q6UXG3 19-247)
chain: T2 sequence

Tests used:
[1] = target: T1, recombinant human apolipoprotein ApoA4 (human); assay: ELISA
[2] = target: T2, recombinant soluble human CD300LG-Fc fusion protein (human); assay: ELISA

| Binder | binding [1] | binding [2] |
| --- | --- | --- |
| B1 | binds |  |
| EQQQEQQQEQQQEQVQ (peptide, UniProt P06727 374-389, N-terminal biotin) [synthetic peptide of the human ApoA4 c-terminal motif] |  | binds |
